Assay results: patent US20260034107A1, “SUBSTITUTED FUSED IMIDAZOLE DERIVATIVES AND METHODS OF TREATING SICKLE CELL DISEASE AND RELATED COMPLICATIONS” (vTv Therapeutics LLC, priority 2019, published 2026)
Some of these results come from one statement about several compounds together.

System: KU812 cells
Experiment: KU812 cell counts and viability by 0.4% Trypan blue exclusion
Assay type: cell-based, human
Conditions: 48 hours, widest range of drug concentrations
Experimental: KU812, a human leukemic cell line that expresses the fetal gamma-globin and adult beta-globin genes, was used as a system for screening. […] (See Zein S, Lou R F, Sivanand S, Ramakrishnan V, Mackie A, Li W, Pace BS. KU812 Cell Line: model for identifying fetal hemoglobin inducing drugs. Exp Biol Med (Maywood) 235:1385-94, 2010.) KU812 cells were grown in Iscove's Modified Dulbecco Media (IMDM) and 10% fetal bovine serum until in log phase growth.
KU812 cells in log growth phase were treated with compounds 73, 134, 473 and 236 (See Table A) at a doses of 0.5, 2.5, 5.0 and 20 μM for 48 hours. At harvest, cell counts and viability were measured by 0.4% Trypan blue exclusion.

**Q.** How did the viability turn out when `CN(C)C(=O)CNC(=O)c1ccc2c(c1)nc(Nc1nc3ccc(C(F)(F)F)cc3s1)n2C` [Compound 134, 1-Methyl-2-(6-trifluoromethyl-benzothiazol-2-ylamino)-1H-benzimidazole-5-carboxylic acid dimethylcarbamoylmethyl-amide] was run?
**A.** The viability was greater than 90%.

**Q.** For `Cn1c(Nc2nc3ccc(C(F)(F)F)cc3s2)nc2cc(C(=O)NCCOCCO)cnc21` [Compound 473, N-[2-(2-Hydroxyethoxy)ethyl]-3-methyl-2-[[6-(trifluoromethyl)-1,3-benzothiazol-2-yl]amino]imidazo[4,5-b]pyridine-6-carboxamide], which viability is on record?
**A.** The viability was greater than 90%.
